Paper PMC10789772
Results are given in words; binding and its absence hold for the method and conditions named. In cells and extracts the contact can be indirect. A yes stands for co-enrichment or nearness to the bait. Other partners may have been found. Tags and fused reporters may be left off the sequences shown.

Amino acid sequences for entries named in this document (tags omitted).
UniProt Q12905: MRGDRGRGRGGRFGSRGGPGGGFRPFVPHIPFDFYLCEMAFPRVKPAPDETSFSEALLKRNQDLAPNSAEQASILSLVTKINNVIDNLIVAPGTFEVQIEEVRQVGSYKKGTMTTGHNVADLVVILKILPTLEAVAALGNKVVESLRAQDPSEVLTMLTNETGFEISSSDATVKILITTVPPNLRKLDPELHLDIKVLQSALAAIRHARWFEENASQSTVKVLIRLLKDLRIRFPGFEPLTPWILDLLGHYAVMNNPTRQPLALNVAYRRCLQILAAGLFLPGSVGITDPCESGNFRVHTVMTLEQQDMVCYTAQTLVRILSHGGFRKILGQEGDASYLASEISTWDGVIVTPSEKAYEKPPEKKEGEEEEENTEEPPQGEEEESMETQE
UniProt Q9Y265: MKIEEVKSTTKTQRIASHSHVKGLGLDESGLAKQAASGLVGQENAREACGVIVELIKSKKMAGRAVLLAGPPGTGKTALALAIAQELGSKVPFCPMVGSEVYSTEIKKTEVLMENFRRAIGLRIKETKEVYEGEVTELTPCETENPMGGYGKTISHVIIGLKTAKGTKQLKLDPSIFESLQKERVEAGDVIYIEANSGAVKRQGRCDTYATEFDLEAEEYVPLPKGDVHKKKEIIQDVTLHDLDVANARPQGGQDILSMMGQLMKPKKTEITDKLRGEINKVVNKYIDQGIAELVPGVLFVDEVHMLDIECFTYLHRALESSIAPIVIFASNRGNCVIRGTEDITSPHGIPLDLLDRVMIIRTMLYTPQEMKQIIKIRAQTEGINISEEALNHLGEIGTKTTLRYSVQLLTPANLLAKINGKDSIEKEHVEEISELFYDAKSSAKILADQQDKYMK

T1: HA-CIP29 (human) (UniProt P82979)
T1 sequence: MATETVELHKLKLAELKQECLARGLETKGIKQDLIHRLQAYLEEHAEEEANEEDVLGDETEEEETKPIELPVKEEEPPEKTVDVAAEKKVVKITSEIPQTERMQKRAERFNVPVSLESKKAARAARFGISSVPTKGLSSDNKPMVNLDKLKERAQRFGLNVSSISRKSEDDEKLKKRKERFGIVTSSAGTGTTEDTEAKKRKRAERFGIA


What follows are molecules tested against T1, HA-CIP29 (human) (assay: affinity purification with mass spectrometry; tandem immunoprecipitation (first: HA, second: FLAG; peptide elution) from nuclear extract expressing both FLAG-URH49 and HA-CIP29, ATP depletion condition, RNase-treated; silver staining and LC-MS/MS).

Molecule	binding
ILF2 (from UniProt Q12905 1-390)	binds
RUVBL1 (from UniProt Q9Y265 1-456)	binds
ILF3 (protein, UniProt Q12906 1-894) MRPMRIFVNDDRHVMAKHSSVYPTQEELEAVQNMVSHTERALKAVSDWIDEQEKGSSEQAESDNMDVPPEDDSKEGAGEQKTEHMTRTLRGVMRVGLVAKGLLLKGDLDLELVLLCKEKPTTALLDKVADNLAIQLAAVTEDKYEILQSVDDAAIVIKNTKEPPLSLTIHLTSPVVREEMEKVLAGETLSVNDPPDVLDRQKCLAALASLRHAKWFQARANGLKSCVIVIRVLRDLCTRVPTWGPLRGWPLELLCEKSIGTANRPMGAGEALRRVLECLASGIVMPDGSGIYDPCEKEATDAIGHLDRQQREDITQSAQHALRLAAFGQLHKVLGMDPLPSKMPKKPKNENPVDYTVQIPPSTTYAITPMKRPMEEDGEEKSPSKKKKKIQKKEEKAEPPQAMNALMRLNQLKPGLQYKLVSQTGPVHAPIFTMSVEVDGNSFEASGPSKKTAKLHVAVKVLQDMGLPTGAEGRDSSKGEDSAEETEAKPAVVAPAPVVEAVSTPSAAFPSDATAEQGPILTKHGKNPVMELNEKRRGLKYELISETGGSHDKRFVMEVEVDGQKFQGAGSNKKVAKAYAALAALEKLFPDTPLALDANKKKRAPVPVRGGPKFAAKPHNPGFGMGGPMHNEVPPPPNLRGRGRGGSIRGRGRGRGFGGANHGGYMNAGAGYGSYGYGGNSATAGYSQFYSNGGHSGNASGGGGGGGGGSSGYGSYYQGDNYNSPVPPKHAGKKQPHGGQQKPSYGSGYQSHQGQQQSYNQSPYSNYGPPQGKQKGYNHGQGSYSYSNSYNSPGGGGGSDYNYESKFNYSGSGGRSGGNSYGSGGASYNPGSHGGYGGGSGGGSSYQGKQGGYSQSNYNSPGSGQNYSGPPSSYQSSQGGYGRNADHSMNYQYR	binds
HNRNPM (protein, UniProt P52272 1-730) MAAGVEAAAEVAATEIKMEEESGAPGVPSGNGAPGPKGEGERPAQNEKRKEKNIKRGGNRFEPYANPTKRYRAFITNIPFDVKWQSLKDLVKEKVGEVTYVELLMDAEGKSRGCAVVEFKMEESMKKAAEVLNKHSLSGRPLKVKEDPDGEHARRAMQKVMATTGGMGMGPGGPGMITIPPSILNNPNIPNEIIHALQAGRLGSTVFVANLDYKVGWKKLKEVFSMAGVVVRADILEDKDGKSRGIGTVTFEQSIEAVQAISMFNGQLLFDRPMHVKMDERALPKGDFFPPERPQQLPHGLGGIGMGLGPGGQPIDANHLNKGIGMGNIGPAGMGMEGIGFGINKMGGMEGPFGGGMENMGRFGSGMNMGRINEILSNALKRGEIIAKQGGGGGGGSVPGIERMGPGIDRLGGAGMERMGAGLGHGMDRVGSEIERMGLVMDRMGSVERMGSGIERMGPLGLDHMASSIERMGQTMERIGSGVERMGAGMGFGLERMAAPIDRVGQTIERMGSGVERMGPAIERMGLSMERMVPAGMGAGLERMGPVMDRMATGLERMGANNLERMGLERMGANSLERMGLERMGANSLERMGPAMGPALGAGIERMGLAMGGGGGASFDRAIEMERGNFGGSFAGSFGGAGGHAPGVARKACQIFVRNLPFDFTWKMLKDKFNECGHVLYADIKMENGKSKGCGVVKFESPEVAERACRMMNGMKLSGREIDVRIDRNA	binds
